# Drug screen on melanoma cell lines: cell count

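Human melanoma cells were exposed to two drugs together for 72 h in 1,536-well plates and read by automated microscopy after fixing and staining. Each value is the count of nuclei relative to DMSO-treated wells, in %, so that 100 equals the control. Every drug was used at one fixed concentration, the higher of two screened. No replicate spread is given; individual values may be noisy.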
This is part of the screen, not chosen by result.

All values are for the listed drug together with docetaxel (0.0005 µM): CC(=O)O[C@@]12CO[C@@H]1C[C@H](O)[C@@]1(C)C(=O)[C@H](O)C3=C(C)[C@@H](OC(=O)[C@H](O)[C@@H](NC(=O)OC(C)(C)C)c4ccccc4)C[C@@](O)([C@@H](OC(=O)c4ccccc4)[C@H]21)C3(C)C

Compounds and concentrations:
AS-252424, 5 µM: O=C1NC(=O)/C(=C/c2ccc(-c3ccc(F)cc3O)o2)S1
dasatinib, 0.02 µM: Cc1nc(Nc2ncc(C(=O)Nc3c(C)cccc3Cl)s2)cc(N2CCN(CCO)CC2)n1
NVP-TAE684, 0.4 µM: COc1cc(N2CCC(N3CCN(C)CC3)CC2)ccc1Nc1ncc(Cl)c(Nc2ccccc2S(=O)(=O)C(C)C)n1
LFM-A13, 10 µM: C/C(O)=C(\C#N)C(=O)Nc1cc(Br)ccc1Br
FH535, 5 µM: Cc1cc([N+](=O)[O-])ccc1NS(=O)(=O)c1cc(Cl)ccc1Cl
lapatinib, 4 µM: CS(=O)(=O)CCNCc1ccc(-c2ccc3ncnc(Nc4ccc(OCc5cccc(F)c5)c(Cl)c4)c3c2)o1
nilotinib, 1 µM: Cc1cn(-c2cc(NC(=O)c3ccc(C)c(Nc4nccc(-c5cccnc5)n4)c3)cc(C(F)(F)F)c2)cn1
lenalidomide, 5 µM: Nc1cccc2c1CN(C1CCC(=O)NC1=O)C2=O (configuration not stated)
PF-562271, 0.4 µM: CN(c1ncccc1CNc1nc(Nc2ccc3c(c2)CC(=O)N3)ncc1C(F)(F)F)S(C)(=O)=O
cisplatin, 8 µM: N.N.[Cl][Pt][Cl]
GSK0660, 5 µM: COC(=O)c1sccc1S(=O)(=O)Nc1ccc(Nc2ccccc2)cc1OC
fludarabine, 1 µM: Nc1nc(F)nc2c1ncn2[C@@H]1O[C@H](CO)[C@@H](O)[C@@H]1O
MK-2206, 2 µM: NC1(c2ccc(-c3nc4ccn5c(=O)[nH]nc5c4cc3-c3ccccc3)cc2)CCC1
pioglitazone, 10 µM: CCc1ccc(CCOc2ccc(CC3SC(=O)NC3=O)cc2)nc1 (configuration not stated)
GSK650394, 0.8 µM: O=C(O)c1ccc(-c2c[nH]c3ncc(-c4ccccc4)cc23)cc1C1CCCC1
KU-0063794, 0.1 µM: COc1ccc(-c2ccc3c(N4CCOCC4)nc(N4C[C@@H](C)O[C@@H](C)C4)nc3n2)cc1CO
BI-D1870, 1 µM: CC(C)CCN1c2nc(Nc3cc(F)c(O)c(F)c3)ncc2N(C)C(=O)C1C (configuration not stated)
sorafenib, 2 µM: CNC(=O)c1cc(Oc2ccc(NC(=O)Nc3ccc(Cl)c(C(F)(F)F)c3)cc2)ccn1
OSU-03012, 5 µM: NCC(=O)Nc1ccc(-n2nc(C(F)(F)F)cc2-c2ccc3c(ccc4ccccc43)c2)cc1
GW441756, 2 µM: Cn1cc(/C=C2\C(=O)Nc3cccnc32)c2ccccc21
enzastaurin, 4 µM: Cn1cc(C2=C(c3cn(C4CCN(Cc5ccccn5)CC4)c4ccccc34)C(=O)NC2=O)c2ccccc21
tamatinib, 2 µM: COc1cc(Nc2ncc(F)c(Nc3ccc4c(n3)NC(=O)C(C)(C)O4)n2)cc(OC)c1OC
TCS401, 8.33 µM: O=C(O)C(=O)Nc1sc2c(c1C(=O)O)CCNC2
CHIR-265, 0.4 µM: Cn1c(Nc2ccc(C(F)(F)F)cc2)nc2cc(Oc3ccnc(-c4ncc(C(F)(F)F)[nH]4)c3)ccc21
KU-55933, 5 µM: O=c1cc(-c2cccc3c2Sc2ccccc2S3)oc(N2CCOCC2)c1

Second drug	WM451Lu
enzastaurin	35.7
dasatinib	32.9
sorafenib	28.7
lapatinib	31.7
KU-55933	37.8
fludarabine	31.3
KU-0063794	34.4
BI-D1870	32.8
FH535	34.0
nilotinib	29.2
LFM-A13	43.9
NVP-TAE684	29.6
TCS401	34.1
MK-2206	41.4
GSK0660	50.3
GW441756	33.2
GSK650394	46.6
tamatinib	37.0
AS-252424	46.5
cisplatin	32.9
pioglitazone	38.5
lenalidomide	38.4
CHIR-265	21.6
OSU-03012	37.4
PF-562271	26.7

The first 3 entries again:

Second drug,WM451Lu
enzastaurin,35.7
dasatinib,32.9
sorafenib,28.7

From a melanoma drug combination screen (doi:10.1371/journal.pone.0140310); values rounded.